The values below are quoted from earlier work in patent US9549912B2, “Methods for treating atrial fibrillation” (Armetheon, Inc., priority 2009, dated 2017).

Amino acid sequences for entries named in this document (tags omitted).
UniProt P08183, whole entry: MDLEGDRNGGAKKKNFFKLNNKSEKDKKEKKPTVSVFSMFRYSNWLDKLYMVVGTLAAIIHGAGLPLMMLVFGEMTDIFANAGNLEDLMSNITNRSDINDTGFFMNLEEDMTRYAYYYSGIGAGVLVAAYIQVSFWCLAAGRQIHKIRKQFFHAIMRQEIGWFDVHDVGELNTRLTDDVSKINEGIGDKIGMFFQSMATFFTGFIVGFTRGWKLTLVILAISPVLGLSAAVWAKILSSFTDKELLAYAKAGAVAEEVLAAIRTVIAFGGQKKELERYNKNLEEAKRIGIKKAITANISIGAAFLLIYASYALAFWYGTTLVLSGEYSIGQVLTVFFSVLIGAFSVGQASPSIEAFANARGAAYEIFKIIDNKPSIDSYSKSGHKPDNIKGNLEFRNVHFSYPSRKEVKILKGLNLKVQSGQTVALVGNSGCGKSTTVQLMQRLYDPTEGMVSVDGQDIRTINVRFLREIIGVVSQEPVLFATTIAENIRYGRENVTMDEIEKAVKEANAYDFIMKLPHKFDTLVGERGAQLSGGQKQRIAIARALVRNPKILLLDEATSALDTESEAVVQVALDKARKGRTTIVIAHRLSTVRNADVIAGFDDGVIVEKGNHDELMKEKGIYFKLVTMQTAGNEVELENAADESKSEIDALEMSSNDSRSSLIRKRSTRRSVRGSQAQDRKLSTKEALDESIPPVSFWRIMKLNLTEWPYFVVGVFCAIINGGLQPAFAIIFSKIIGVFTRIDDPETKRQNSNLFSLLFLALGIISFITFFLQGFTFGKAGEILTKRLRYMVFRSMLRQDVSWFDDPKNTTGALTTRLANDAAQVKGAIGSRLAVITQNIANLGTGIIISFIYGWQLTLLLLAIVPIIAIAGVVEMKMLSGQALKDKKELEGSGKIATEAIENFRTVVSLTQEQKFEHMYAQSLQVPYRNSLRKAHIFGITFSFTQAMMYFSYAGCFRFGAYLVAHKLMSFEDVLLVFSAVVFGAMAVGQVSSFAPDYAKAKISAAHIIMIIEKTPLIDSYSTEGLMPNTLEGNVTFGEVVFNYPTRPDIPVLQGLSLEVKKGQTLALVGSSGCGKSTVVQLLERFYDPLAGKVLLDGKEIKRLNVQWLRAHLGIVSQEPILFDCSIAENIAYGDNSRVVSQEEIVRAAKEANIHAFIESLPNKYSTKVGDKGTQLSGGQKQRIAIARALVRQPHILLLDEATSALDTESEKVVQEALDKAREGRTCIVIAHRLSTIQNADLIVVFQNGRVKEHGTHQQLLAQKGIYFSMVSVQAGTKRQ

In this series the target is P-glycoprotein (P-gp) (Homo sapiens, UniProt P08183). The note with it: cited from earlier work.

Consider `CCCCc1oc2ccccc2c1C(=O)c1cc(I)c(OCCN(CC)CC)c(I)c1` [amiodarone], for which the P-gp inhibition result is reported as “inhibitor”.
